Here are results for two substances from paper PMC8397841.

By UniProt entry, the sequences of proteins in these tests, tags left out. Residues count along the entry.
UniProt P29317, residues 24-976: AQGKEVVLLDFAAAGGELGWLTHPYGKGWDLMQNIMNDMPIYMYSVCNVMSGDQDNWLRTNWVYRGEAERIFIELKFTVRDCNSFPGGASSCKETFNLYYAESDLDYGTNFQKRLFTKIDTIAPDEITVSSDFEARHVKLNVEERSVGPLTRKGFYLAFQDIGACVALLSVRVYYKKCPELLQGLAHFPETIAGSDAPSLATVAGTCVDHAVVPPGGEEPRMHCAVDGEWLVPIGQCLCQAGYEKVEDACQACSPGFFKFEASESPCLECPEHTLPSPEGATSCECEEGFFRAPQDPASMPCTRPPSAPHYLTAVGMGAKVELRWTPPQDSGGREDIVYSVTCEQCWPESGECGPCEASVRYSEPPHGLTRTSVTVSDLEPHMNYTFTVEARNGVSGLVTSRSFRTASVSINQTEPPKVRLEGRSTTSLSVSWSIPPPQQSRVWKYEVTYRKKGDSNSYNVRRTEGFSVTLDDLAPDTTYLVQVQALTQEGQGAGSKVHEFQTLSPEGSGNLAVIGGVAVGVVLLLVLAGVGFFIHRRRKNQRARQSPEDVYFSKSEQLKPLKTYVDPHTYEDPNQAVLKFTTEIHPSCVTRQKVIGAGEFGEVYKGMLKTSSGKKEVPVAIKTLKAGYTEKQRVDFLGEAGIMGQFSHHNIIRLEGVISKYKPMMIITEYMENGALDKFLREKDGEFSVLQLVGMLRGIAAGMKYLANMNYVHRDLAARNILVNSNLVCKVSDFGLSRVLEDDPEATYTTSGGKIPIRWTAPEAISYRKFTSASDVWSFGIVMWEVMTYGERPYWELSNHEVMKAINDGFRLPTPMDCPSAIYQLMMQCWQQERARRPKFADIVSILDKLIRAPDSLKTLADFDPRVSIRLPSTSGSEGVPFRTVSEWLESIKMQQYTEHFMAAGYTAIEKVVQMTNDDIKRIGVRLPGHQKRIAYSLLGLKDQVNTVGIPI
UniProt O00459: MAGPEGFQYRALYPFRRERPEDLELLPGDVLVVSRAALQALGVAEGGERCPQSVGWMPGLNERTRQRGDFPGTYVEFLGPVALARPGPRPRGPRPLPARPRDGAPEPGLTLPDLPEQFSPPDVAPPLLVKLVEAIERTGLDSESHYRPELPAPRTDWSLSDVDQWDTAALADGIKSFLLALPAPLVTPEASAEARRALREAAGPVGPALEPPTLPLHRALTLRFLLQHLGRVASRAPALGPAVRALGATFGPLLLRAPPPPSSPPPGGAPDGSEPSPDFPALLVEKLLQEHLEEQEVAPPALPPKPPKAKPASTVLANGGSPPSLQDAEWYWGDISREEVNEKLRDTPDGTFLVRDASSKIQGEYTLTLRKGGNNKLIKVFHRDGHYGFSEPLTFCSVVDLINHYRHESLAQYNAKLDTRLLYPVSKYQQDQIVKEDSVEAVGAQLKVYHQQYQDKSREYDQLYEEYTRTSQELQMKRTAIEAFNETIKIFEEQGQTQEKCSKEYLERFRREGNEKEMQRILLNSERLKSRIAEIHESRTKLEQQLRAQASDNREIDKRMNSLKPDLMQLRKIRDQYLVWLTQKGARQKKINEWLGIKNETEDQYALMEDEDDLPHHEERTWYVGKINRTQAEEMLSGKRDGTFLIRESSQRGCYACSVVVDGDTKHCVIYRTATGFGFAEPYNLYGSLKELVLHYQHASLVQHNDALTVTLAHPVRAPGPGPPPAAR

Assay [1] deals with T1, Ephrin A4 (EFNA4), FLAG-tagged (UniProt P52798).
T1 sequence: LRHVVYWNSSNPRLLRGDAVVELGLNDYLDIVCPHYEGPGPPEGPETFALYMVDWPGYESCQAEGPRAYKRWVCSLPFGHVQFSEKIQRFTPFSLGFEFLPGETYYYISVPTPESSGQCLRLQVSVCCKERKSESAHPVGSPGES
Description: co-IP; Hep3B cell lysates (EFNA4 overexpressed); antibody against FLAG-EFNA4, EPHA2 or PIK3R2; Pierce Co-Immunoprecipitation Kit; immune complexes analysed by western blotting. Background: In western blotting, separated proteins are transferred to a membrane and probed.

Assay [2] has as its target EPHA2 receptor (human (endogenous in Hep3B)) (UniProt P29317). The assay is described as above.

Results are given in words; binding and its absence hold for the method and conditions named. Binding seen in cells or lysates may run through a third protein. Some binding calls cover weakened binding; strength is not graded here. For part of these data: Tags and fused reporters may be left off the sequences shown.

Turning to “EPHA2 receptor (from UniProt P29317 24-976)”, in assay [1], the binding result is “binds”.

As for “phosphoinositide-3-kinase regulatory subunit 2 (PIK3R2) (from UniProt O00459 1-728)”, the binding result in assay [1] and in assay [2] was “binds” in each case.
